These are yes or no findings as the source states them, for the method shown. In cells and extracts the contact can be indirect. Some results given as binding are weak or reduced against the parent protein; the word gives no strength. For some assays here: Tags and fused reporters may be left off the sequences shown.
B1: DNA polymerase iota (Pol ι), endogenous in ESCC cells (enzyme, UniProt Q9UNA4 1-740)
chain: MEKLGVEPEEEGGGDDDEEDAEAWAMELADVGAAASSQGVHDQVLPTPNASSRVIVHVDLDCFYAQVEMISNPELKDKPLGVQQKYLVVTCNYEARKLGVKKLMNVRDAKEKCPQLVLVNGEDLTRYREMSYKVTELLEEFSPVVERLGFDENFVDLTEMVEKRLQQLQSDELSAVTVSGHVYNNQSINLLDVLHIRLLVGSQIAAEMREAMYNQLGLTGCAGVASNKLLAKLVSGVFKPNQQTVLLPESCQHLIHSLNHIKEIPGIGYKTAKCLEALGINSVRDLQTFSPKILEKELGISVAQRIQKLSFGEDNSPVILSGPPQSFSEEDSFKKCSSEVEAKNKIEELLASLLNRVCQDGRKPHTVRLIIRRYSSEKHYGRESRQCPIPSHVIQKLGTGNYDVMTPMVDILMKLFRNMVNVKMPFHLTLLSVCFCNLKALNTAKKGLIDYYLMPSLSTTSRSGKHSFKMKDTHMEDFPKDKETNRDFLPSGRIESTRTRESPLDTTNFSKEKDINEFPLCSLPEGVDQEVFKQLPVDIQEEILSGKSREKFQGKGSVSCPLHASRGVLSFFSKKQMQDIPINPRDHLSSSKQVSSVSPCEPGTSGFNSSSSSYMSSQKDYSYYLDNRLKDERISQGPKEPQGFHFTNSNPAVSAFHSFPNLQSEQLFSRNHTTDSHKQTVATDSHEGLTENREPDSVDEKITFPSDIDPQVFYELPEAVQKELLAEWKRAGSDFHIGHK

Sequences of proteins named here, by UniProt entry; tags and fusion partners are left off.
UniProt Q16665: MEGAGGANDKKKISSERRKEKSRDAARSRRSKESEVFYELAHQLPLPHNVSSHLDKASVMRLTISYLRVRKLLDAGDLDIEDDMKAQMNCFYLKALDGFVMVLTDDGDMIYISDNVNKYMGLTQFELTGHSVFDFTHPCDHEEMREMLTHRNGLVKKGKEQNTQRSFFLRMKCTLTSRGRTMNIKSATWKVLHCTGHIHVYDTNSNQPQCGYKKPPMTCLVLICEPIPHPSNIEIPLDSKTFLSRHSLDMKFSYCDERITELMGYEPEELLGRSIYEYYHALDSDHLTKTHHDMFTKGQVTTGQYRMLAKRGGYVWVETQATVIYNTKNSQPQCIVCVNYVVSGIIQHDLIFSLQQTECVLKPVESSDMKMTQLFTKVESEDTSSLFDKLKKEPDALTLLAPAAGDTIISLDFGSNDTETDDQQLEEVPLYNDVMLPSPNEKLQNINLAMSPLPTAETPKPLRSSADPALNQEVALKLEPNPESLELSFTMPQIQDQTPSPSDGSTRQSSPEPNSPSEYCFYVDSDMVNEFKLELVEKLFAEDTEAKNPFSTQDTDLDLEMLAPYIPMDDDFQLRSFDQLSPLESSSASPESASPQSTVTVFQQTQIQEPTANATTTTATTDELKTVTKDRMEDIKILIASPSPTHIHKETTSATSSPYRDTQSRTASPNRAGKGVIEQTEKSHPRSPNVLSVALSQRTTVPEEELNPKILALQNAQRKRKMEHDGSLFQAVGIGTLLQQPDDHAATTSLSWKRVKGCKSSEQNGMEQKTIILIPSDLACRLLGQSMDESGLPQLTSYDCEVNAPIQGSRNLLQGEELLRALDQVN
UniProt Q93009: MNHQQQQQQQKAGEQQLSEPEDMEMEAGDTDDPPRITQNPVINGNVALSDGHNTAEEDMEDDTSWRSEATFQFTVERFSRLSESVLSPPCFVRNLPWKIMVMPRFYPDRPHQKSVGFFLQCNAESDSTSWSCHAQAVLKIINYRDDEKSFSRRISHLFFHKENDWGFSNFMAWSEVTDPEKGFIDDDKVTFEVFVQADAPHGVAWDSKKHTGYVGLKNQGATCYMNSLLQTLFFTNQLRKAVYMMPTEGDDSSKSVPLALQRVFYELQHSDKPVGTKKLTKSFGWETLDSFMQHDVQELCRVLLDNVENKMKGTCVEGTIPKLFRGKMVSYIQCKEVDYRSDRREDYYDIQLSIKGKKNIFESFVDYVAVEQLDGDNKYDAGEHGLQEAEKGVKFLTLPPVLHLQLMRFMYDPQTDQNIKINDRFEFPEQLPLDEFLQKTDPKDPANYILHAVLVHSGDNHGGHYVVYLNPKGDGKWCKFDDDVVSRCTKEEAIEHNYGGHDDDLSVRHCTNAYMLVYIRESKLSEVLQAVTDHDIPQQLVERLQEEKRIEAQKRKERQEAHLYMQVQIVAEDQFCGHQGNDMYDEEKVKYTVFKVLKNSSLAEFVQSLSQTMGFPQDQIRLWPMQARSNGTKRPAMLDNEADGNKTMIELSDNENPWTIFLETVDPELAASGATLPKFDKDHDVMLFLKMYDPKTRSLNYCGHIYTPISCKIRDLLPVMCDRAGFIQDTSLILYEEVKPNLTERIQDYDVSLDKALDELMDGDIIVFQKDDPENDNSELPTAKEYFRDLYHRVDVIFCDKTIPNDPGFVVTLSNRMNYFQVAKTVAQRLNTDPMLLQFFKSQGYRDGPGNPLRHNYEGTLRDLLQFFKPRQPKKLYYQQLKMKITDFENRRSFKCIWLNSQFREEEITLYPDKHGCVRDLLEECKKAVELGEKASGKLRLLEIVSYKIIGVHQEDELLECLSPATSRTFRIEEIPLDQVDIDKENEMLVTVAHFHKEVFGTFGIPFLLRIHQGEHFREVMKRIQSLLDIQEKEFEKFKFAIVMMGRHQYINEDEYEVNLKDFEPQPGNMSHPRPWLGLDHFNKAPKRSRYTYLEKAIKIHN

Tests used:
[1] = molecular target: T1, DNA polymerase iota (Pol ι), endogenous in ESCC cells (human (endogenous in TE-1 and ECA-109)) (UniProt Q9UNA4); experiment: co-IP; endogenous proteins in TE-1 and ECA-109 cells; anti-HIF-1α antibody, protein G magnetic beads, rabbit IgG as negative control; cells under 20% O2 or 1% O2, with Pol ι/USP7 knockdown or overexpression
T1 sequence: B1 chain

[2] = molecular target: HIF-1α, endogenous in ESCC cells (human (endogenous in TE-1 and ECA-109)) (UniProt Q16665); experiment: as above
[3] = molecular target: T2, Flag-Pol ι (DNA polymerase iota, wild type) (UniProt Q9UNA4); experiment: co-IP; HEK293T cells co-transfected with Flag-Pol ι (WT or deletion mutants), Myc-USP7 and HA-HIF-1α; M-PER lysis buffer; anti-Flag, anti-Myc and anti-HA agarose beads; western blot
T2 sequence: B1 chain

[4] = molecular target: T3, GST-tagged Pol ι (UniProt Q9UNA4); experiment: pull-down; GST-tagged Pol ι from E. coli BL21 immobilized on glutathione sepharose beads, mixed with lysates of HEK293T cells expressing MYC-USP7 and HA-HIF-1α; western blot; only the target purified
T3 sequence: B1 chain

[5] = molecular target: HA-HIF-1α (UniProt Q16665); experiment: co-IP; HEK293T cells co-transfected with Flag-Pol ι (WT or deletion mutants), Myc-USP7 and HA-HIF-1α; M-PER lysis buffer; anti-Flag, anti-Myc and anti-HA agarose beads; western blot

binding [1] | binding [2] | binding [3] | binding [4] | binding [5] | Molecule
binds | binds |  |  |  | USP7, endogenous in ESCC cells (from UniProt Q93009 1-1102) (enzyme)
 |  | binds | binds |  | HA-HIF-1α (from UniProt Q16665 1-826)
 |  | binds | binds | binds | Myc-USP7 (from UniProt Q93009 1-1102) (enzyme)
 | binds |  |  |  | B1
